The source of these data is PMC2905391.

The chains behind the UniProt entries cited, without tags or fusion partners. Where a name states a change or a piece, a line headed by the entry shows the natural chain unless it says otherwise.
UniProt P13020: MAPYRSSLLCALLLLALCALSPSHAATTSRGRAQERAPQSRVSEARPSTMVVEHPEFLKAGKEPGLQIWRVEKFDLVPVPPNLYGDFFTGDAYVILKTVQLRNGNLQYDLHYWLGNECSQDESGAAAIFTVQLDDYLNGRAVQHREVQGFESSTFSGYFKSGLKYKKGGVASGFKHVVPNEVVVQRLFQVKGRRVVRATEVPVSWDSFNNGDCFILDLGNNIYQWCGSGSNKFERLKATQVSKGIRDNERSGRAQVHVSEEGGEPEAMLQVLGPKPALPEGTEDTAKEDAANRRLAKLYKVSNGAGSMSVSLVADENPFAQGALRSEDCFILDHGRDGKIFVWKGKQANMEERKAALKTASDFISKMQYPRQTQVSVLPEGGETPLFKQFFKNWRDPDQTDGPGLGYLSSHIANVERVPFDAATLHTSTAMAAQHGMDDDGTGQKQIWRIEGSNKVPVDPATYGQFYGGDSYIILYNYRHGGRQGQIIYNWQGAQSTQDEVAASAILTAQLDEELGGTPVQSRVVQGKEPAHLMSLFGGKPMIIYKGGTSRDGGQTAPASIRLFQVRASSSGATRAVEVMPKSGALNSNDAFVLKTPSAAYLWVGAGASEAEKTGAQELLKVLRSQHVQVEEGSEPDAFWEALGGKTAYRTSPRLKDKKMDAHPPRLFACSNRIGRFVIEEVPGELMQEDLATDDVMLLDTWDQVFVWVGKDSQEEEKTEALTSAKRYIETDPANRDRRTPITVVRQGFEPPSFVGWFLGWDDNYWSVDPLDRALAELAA

These are yes or no findings as the source states them, for the method shown. In cells and extracts the contact can be indirect. Here binding means that the protein was enriched with, or labelled near, the bait; the list need not be complete.

The experiment addresses T1, p55 (MAGUK protein) (mouse (endogenous in inner ear)) (UniProt P70290).
T1 sequence: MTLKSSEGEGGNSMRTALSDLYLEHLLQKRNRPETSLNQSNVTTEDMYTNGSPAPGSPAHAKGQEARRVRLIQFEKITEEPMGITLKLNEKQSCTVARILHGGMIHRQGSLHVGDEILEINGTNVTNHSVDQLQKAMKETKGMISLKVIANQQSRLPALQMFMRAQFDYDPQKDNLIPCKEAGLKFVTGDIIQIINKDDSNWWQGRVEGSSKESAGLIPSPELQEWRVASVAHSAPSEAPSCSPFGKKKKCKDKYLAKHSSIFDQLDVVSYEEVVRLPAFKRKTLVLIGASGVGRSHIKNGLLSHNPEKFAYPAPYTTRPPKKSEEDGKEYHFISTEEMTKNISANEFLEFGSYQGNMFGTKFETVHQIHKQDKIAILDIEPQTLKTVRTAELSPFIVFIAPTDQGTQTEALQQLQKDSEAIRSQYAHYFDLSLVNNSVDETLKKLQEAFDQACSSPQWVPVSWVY
The experiment is described as follows: affinity purification with mass spectrometry; immunoprecipitation from mouse inner ear (cochlea P7-P8) lysate with anti-p55 antibody linked to agarose beads, normal goat IgG as negative control; NP40 lysis buffer (150 mM NaCl, 1% NP40, 50 mM Tris pH 8.0), overnight at 4°C; eluted complexes analysed by LC-MS/MS (methods: LC-MALDI TOF/TOF).

On to gelsolin (from UniProt P13020), for which the binding result is listed as “binds”.
